Measured values reported in patent US20080171387A1.
Results are given in words; binding and its absence hold for the method and conditions named. Binding seen in cells or lysates may run through a third protein. Some binding calls cover weakened binding; strength is not graded here.

Sequences of proteins named here, by UniProt entry; tags and fusion partners are left off. A change or cut given only in a name is not applied to a line headed by its entry.
UniProt P38398: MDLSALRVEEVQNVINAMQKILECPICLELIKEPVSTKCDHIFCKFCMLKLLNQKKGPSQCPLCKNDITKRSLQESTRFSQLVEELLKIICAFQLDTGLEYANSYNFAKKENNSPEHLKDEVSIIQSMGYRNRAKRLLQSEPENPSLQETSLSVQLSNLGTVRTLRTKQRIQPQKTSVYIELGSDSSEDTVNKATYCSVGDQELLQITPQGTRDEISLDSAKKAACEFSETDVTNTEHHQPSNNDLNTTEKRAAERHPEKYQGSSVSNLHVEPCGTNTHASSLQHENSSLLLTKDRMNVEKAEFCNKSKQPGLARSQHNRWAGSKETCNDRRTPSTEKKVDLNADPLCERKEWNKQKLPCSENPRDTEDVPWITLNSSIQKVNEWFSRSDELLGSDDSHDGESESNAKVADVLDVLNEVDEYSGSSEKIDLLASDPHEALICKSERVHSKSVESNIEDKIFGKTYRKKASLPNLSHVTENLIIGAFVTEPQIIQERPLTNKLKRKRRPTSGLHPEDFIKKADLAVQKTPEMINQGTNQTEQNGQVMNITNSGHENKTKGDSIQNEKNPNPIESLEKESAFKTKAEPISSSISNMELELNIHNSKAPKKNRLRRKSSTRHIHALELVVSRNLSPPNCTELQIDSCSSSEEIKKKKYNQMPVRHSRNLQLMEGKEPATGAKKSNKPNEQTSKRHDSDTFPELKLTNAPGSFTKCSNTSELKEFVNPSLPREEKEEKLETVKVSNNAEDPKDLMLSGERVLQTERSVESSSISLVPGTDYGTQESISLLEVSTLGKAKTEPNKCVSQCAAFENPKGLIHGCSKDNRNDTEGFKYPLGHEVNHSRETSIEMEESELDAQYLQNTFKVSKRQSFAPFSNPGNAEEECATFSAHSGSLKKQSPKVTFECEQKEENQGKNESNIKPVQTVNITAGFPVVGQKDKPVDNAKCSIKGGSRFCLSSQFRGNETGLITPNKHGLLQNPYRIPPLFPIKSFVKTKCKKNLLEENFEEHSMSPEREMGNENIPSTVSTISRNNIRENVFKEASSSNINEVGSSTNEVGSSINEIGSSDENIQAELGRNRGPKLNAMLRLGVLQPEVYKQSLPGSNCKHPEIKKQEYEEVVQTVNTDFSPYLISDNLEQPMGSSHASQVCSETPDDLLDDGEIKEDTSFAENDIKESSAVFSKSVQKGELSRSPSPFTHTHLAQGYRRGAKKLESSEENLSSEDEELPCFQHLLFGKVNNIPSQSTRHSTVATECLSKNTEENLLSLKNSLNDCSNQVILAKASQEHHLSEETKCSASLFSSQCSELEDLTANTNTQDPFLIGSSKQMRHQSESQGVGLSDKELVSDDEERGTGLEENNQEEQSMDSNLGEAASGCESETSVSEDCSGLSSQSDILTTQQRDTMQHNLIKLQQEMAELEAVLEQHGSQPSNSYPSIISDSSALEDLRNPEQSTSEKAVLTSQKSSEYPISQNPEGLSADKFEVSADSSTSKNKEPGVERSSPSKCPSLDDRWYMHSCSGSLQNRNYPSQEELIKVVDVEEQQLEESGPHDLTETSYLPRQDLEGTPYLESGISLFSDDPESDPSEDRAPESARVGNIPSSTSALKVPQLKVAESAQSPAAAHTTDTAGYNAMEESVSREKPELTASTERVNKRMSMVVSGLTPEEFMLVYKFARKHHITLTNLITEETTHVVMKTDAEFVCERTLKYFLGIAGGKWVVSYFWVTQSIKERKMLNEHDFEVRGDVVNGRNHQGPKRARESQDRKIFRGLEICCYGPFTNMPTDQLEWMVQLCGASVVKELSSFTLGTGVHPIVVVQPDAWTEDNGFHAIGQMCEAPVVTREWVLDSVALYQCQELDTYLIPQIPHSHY
UniProt P51532: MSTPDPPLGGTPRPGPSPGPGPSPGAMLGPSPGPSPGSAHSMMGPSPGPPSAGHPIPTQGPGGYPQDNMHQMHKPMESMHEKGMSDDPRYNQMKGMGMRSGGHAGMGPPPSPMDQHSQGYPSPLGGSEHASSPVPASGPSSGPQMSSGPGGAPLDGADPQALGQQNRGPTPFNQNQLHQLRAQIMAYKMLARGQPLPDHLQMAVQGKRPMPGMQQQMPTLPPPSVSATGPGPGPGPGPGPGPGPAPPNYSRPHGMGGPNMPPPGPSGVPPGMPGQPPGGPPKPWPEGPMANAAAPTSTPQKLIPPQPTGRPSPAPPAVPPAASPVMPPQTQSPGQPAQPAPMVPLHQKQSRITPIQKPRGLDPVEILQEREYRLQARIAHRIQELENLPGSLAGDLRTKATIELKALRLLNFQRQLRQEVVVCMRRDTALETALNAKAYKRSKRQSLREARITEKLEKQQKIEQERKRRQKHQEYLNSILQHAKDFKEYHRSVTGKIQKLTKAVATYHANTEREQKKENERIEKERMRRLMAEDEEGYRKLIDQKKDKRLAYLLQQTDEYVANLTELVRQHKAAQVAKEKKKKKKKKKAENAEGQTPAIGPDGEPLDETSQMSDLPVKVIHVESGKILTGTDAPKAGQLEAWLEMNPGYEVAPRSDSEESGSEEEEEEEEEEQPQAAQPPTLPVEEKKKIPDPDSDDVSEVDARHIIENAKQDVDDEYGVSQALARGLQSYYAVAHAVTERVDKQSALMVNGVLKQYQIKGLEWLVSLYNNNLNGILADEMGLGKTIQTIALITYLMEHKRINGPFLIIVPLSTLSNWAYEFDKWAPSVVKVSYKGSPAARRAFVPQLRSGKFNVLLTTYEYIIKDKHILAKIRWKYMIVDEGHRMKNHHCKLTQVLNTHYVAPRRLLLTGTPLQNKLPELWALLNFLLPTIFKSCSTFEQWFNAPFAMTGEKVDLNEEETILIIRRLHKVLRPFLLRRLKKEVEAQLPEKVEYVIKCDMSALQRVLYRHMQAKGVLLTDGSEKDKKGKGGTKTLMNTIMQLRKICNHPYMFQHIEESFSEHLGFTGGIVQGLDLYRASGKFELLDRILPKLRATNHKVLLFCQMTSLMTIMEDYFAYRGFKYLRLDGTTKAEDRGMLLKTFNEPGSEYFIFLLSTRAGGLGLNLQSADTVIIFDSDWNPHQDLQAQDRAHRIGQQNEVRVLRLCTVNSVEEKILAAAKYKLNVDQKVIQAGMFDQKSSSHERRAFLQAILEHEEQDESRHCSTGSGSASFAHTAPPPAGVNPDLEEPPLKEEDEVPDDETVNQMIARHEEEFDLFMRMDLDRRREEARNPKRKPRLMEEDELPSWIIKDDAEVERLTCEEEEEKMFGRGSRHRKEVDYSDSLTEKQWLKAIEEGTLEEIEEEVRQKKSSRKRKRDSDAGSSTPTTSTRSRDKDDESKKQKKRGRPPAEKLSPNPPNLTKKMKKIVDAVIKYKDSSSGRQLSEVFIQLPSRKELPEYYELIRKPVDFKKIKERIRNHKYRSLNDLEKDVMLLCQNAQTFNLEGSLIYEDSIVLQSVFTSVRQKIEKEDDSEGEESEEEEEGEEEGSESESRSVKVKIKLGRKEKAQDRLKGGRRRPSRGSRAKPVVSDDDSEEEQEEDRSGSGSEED

Assays:
[1] = biological target: GST-BRCA1 fusion protein #2 (BRCA1 amino acids 260-553) (Homo sapiens (Human)) (UniProt P38398); experiment: GST pull-down on glutathione-SEPHAROSE, western blot for BRG1
[2] = biological target: Full-length his-tagged BRCA1 (Homo sapiens (Human)) (UniProt P38398); experiment: FLAG affinity column pull-down of purified recombinant FLAG-BRG1 and his-BRCA1, western blot; similar results on co-expression in insect cells

binding [1]: binds
binding [2]: binds
Substance: FLAG-BRG1 (from UniProt P51532 1-1647)
